# Results published in the supplement of paper PMC12067093, “Discovery and optimisation of a covalent ligand for TRIM25 and its application to targeted protein ubiquitination” (Chemical Science, 2025).
# The chains behind the UniProt entries cited, without tags or fusion partners. Where a name states a change or a piece, a line headed by the entry shows the natural chain unless it says otherwise.
# UniProt Q12788: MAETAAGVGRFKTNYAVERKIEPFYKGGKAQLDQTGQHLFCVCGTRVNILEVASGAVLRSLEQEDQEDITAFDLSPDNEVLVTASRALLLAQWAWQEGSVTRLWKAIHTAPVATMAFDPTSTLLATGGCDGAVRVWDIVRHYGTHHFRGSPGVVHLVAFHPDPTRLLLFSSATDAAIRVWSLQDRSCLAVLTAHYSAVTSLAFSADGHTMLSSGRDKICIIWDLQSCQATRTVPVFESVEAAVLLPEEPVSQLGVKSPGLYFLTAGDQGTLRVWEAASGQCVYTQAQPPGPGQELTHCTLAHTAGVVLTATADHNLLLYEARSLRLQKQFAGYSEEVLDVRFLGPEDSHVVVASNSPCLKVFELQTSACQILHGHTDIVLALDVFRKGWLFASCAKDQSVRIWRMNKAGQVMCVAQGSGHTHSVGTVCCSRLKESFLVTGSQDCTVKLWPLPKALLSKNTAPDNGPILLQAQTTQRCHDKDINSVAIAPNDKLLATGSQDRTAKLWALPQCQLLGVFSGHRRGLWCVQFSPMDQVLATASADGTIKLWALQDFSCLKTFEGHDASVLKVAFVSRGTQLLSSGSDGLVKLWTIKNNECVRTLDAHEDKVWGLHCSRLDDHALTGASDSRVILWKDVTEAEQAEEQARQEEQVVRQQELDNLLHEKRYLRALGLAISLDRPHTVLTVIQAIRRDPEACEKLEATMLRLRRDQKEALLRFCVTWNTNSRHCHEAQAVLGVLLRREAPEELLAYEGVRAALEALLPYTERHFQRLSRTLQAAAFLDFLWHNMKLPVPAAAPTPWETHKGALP
# UniProt Q9UL54: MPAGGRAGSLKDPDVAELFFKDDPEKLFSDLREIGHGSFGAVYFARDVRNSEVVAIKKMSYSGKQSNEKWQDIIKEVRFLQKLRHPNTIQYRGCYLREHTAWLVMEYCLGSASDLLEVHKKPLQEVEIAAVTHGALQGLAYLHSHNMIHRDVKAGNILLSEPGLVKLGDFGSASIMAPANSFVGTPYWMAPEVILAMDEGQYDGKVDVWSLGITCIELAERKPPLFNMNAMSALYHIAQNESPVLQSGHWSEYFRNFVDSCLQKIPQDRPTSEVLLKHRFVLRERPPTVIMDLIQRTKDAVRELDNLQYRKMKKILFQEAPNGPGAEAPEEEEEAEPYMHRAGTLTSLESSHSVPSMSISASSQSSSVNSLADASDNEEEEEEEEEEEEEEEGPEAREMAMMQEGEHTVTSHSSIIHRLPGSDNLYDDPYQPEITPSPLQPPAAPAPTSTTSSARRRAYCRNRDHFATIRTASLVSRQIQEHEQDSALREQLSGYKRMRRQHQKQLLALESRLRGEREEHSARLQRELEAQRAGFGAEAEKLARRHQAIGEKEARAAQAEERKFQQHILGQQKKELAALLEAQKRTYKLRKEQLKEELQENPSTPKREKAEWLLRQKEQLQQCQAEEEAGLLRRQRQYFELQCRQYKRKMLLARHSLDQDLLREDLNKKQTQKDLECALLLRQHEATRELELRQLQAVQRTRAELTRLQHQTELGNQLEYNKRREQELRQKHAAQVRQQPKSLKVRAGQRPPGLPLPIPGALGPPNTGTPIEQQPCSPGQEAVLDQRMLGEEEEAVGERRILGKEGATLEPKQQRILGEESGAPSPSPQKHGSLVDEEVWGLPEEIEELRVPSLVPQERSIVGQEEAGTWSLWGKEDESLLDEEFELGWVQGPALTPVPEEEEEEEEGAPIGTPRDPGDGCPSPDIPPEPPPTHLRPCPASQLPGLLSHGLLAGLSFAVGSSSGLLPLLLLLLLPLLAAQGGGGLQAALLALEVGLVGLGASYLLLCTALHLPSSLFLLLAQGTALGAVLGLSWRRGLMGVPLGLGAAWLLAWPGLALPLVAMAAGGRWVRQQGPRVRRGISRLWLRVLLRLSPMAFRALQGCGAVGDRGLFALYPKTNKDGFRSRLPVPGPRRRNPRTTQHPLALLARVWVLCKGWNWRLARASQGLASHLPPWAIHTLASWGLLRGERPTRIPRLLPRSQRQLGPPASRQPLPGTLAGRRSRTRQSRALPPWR
# UniProt Q9Y4P3: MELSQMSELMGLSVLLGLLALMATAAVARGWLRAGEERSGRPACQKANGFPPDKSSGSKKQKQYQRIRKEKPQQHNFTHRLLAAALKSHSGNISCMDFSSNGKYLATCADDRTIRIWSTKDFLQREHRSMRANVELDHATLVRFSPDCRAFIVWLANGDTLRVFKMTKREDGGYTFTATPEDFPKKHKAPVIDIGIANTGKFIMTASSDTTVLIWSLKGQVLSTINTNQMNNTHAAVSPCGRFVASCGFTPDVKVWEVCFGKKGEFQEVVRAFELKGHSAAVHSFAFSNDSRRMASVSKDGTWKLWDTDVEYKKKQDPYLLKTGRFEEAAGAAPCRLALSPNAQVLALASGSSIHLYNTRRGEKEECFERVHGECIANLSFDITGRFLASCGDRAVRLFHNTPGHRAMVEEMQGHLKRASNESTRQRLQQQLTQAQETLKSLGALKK
# UniProt P26639: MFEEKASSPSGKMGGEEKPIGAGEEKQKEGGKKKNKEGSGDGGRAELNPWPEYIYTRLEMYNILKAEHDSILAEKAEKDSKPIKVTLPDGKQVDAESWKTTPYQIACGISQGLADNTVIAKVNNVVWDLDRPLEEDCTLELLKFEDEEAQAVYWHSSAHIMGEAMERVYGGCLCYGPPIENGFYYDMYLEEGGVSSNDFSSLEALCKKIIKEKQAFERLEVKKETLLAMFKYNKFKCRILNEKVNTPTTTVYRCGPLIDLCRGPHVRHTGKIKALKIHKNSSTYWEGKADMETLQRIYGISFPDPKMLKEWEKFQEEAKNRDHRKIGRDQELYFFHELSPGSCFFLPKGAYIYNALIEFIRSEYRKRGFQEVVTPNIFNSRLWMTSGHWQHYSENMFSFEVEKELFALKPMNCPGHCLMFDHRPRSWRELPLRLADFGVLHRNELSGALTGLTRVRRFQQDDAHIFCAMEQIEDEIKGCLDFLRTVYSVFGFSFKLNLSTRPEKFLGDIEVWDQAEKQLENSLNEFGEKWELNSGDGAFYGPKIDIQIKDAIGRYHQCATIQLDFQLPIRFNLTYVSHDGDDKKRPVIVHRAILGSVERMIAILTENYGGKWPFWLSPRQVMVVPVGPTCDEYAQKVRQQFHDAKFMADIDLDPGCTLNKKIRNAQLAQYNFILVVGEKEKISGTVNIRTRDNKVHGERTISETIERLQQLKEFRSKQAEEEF
# UniProt Q6NXT6: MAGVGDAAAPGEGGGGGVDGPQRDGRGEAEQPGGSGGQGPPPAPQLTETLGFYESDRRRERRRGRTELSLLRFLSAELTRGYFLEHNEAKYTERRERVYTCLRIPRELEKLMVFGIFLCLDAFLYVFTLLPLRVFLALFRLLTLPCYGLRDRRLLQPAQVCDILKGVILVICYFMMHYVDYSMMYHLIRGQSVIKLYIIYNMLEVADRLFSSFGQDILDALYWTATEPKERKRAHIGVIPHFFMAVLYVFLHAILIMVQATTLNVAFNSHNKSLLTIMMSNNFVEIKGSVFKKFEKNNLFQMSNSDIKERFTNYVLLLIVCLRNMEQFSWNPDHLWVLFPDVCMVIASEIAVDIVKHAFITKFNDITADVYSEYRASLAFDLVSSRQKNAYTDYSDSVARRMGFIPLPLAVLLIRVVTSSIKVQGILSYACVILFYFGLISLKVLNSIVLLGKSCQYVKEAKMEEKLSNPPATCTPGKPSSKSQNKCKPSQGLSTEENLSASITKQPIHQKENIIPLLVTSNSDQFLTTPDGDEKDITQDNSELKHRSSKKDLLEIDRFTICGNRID
# UniProt Q13395: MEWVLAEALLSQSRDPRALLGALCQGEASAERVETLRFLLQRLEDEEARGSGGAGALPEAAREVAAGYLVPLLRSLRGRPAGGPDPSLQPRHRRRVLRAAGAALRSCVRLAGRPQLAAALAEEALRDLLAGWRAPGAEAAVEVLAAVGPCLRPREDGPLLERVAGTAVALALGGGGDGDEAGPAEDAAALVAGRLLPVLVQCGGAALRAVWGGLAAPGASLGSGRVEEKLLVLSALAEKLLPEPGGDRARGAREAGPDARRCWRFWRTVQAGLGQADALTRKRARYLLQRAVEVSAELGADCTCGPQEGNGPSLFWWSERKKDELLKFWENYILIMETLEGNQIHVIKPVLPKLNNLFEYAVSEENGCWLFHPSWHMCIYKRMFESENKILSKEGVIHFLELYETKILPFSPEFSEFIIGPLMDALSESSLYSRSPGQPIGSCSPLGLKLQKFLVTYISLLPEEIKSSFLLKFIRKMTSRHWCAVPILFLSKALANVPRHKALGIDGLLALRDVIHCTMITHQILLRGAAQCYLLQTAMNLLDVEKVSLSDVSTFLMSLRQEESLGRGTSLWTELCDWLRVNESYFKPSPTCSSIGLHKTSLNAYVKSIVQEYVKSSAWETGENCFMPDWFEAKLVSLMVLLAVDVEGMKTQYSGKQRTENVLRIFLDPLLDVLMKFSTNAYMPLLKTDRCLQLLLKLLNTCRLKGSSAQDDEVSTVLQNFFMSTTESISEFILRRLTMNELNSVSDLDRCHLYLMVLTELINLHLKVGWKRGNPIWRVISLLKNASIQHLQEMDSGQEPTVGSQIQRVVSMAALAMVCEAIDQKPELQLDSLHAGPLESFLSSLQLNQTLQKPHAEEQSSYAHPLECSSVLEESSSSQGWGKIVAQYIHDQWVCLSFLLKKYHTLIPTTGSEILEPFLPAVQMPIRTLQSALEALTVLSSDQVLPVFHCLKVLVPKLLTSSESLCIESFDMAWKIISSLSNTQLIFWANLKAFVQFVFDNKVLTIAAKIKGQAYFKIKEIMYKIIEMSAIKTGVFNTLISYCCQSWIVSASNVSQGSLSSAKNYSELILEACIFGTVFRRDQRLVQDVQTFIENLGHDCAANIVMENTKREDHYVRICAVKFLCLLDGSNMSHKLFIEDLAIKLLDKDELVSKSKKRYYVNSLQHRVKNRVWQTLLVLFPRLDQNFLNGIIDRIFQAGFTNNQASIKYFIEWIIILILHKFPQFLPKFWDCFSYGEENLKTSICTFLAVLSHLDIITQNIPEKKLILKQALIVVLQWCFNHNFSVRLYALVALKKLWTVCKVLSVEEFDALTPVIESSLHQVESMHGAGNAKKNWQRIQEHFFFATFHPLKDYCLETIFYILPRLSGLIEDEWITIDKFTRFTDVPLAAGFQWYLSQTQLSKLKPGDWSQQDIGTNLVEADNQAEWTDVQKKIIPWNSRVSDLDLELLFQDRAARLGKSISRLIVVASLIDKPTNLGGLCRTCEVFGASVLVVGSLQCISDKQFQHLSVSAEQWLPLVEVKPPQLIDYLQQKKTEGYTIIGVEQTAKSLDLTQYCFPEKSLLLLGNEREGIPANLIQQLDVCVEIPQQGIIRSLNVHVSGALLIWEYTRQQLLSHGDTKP
# UniProt Q9UHD2: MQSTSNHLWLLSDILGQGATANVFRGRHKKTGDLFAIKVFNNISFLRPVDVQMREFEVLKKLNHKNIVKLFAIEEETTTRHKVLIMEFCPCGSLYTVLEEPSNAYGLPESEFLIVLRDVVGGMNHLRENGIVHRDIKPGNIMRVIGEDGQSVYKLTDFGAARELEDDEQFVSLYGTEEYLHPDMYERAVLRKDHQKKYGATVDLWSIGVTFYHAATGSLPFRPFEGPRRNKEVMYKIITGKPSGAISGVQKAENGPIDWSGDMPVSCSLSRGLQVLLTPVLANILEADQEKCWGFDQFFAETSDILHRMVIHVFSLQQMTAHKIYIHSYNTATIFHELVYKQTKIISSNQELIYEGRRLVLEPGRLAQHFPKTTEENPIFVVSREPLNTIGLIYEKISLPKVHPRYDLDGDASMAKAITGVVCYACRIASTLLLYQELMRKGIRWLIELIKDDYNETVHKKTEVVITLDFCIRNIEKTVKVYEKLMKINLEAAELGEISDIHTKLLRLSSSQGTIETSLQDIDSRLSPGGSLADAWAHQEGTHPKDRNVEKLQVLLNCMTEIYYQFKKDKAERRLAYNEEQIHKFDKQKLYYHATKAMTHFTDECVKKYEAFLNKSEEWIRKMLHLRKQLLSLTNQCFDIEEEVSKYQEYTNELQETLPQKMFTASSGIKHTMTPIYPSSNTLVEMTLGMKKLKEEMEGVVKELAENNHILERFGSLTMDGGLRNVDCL
# The list shows a part of the results.
# Compound: CC1Cc2ccccc2N1C(=O)C1CCCN(C1)C(=O)CCl (mixture of isomers) [TRIM25 ligand 11 (diastereomer mixture)]
# Assay: probe-labelled cysteine peptide fold change vs DMSO (competition) (log2 fold change); higher = less target engagement (more negative = stronger competition)
# Conditions: THP-1, incubation time: 4 h
# 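Also: competitive chemoproteomic profiling in live THP-1 cells with an iodoacetamide desthiobiotin (IA-DTB) probe, comparing probe-labelled peptide intensities in compound-treated cells against DMSO-treated controls.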
Target,probe-labelled cysteine peptide fold change (10 µM),probe-labelled cysteine peptide fold change (50 µM)
TBL3_Q12788_129_AIHTAPVATMAFDPTSTLLATGGCDGAVR (UniProt Q12788),0.199,0.256
TBC1D24_Q9ULP9_404_EVCGAYLSTDWSER (UniProt Q9ULP9),0.0351,0.172
TAOK2_Q9UL54_1103_ALQGCGAVGDR (UniProt Q9UL54),0.0711,0.0811
TBC1D15_Q8TC07_605_IDVEDILCK (UniProt Q8TC07),0.391,0.145
SZT2_Q5T011_2019_APLPSDDYAADESCAPR (UniProt Q5T011),0.197,-0.14
TAX1BP1_Q86VP1_196_CDQLQAEQK (UniProt Q86VP1),0.0706,-0.0507
TBL2_Q9Y4P3_95_SHSGNISCMDFSSNGK (UniProt Q9Y4P3),-0.0871,-0.239
TARS_P26639_261_CGPLIDLCR (UniProt P26639),0.193,-0.0116
TAPT1_Q6NXT6_562_DLLEIDRFTICGNRID (UniProt Q6NXT6),-0.305,-0.344
TAF2_Q6P1X5_94_INDLEAAFIYNDPTLEVCHSESK (UniProt Q6P1X5),0.0196,-0.111
TARBP1_Q13395_24_ALLGALCQGEASAER (UniProt Q13395),-0.00389,-0.12
TAF15_Q92804_379_NSCNQCNEPRPEDSR (UniProt Q92804),-0.121,-0.0853
TBK1_Q9UHD2_605_AMTHFTDECVK (UniProt Q9UHD2),0.0838,0.345
TBCD_Q9BTW9_1055_TLDHVLTHGCFDIFTTEEDHPFAVK (UniProt Q9BTW9),-0.0281,-0.0769
